The other results are listed elsewhere or left out. Shown are side measurements of this screen, not its main read-out; they come without a call. The list favours compounds with an active or inconclusive main result. Words in brackets tell the shape of the fitted curve; partial curves, single points and poor fits give uncertain potencies.
Test: qHTS Assay for Identifying the Cell-Membrane Permeable IMPase Inhibitors
Settings: CHO-M1 cells, IP1 accumulation, HTRF TR-FRET ratio; measured here: donor channel 620 nm AC50

Row | SMILES | AC50
1 | CC(NC(=O)Nc1ncccn1)(C(F)(F)F)C(F)(F)F | 0.0447 µM [rising, full curve]
2 | Cc1ccc2cccc(NC(=S)NC(=O)c3c(Br)cnn3C)c2n1 | 0.0891 µM [falling, full curve, poor fit]
3 | Cc1ccc(-c2cc(C(=O)N(C)Cc3cnn(C)c3C)c3cc(Br)ccc3n2)cc1 | 11.2 µM [rising, partial curve]
4 | CCOC(=O)/C(N=Nc1c(Br)cc(Br)cc1Br)=C(\C)O | 5.01 µM [falling, partial curve]
5 | O=C(NCC(=O)N(Cc1ccccc1)C(C(=O)NC1CCCCC1)c1ccco1)c1ccco1 (stereo unspecified) | 0.794 µM [falling, single point]
6 | CCn1cc(C(=O)O)c(=O)c2cc(F)c(N3CCN(S(=O)(=O)c4ccc(NC(=O)OC)cc4)CC3)cc21 | 35.5 µM [rising, single point]
7 | O=C(COC(=O)c1ccc(S(=O)(=O)N2CCCC2)cc1)NCc1ccc(Cl)cc1 | 31.6 µM [rising, single point]
8 | CC(C)CCn1c(SCCN2CCOCC2)nc2c1c(=O)[nH]c(=O)n2C | 0.02 µM [rising, full curve, poor fit]
9 | CCOC(=O)c1c(N)sc(C(=O)N(C)C)c1CN1CCOCC1 | 0.0158 µM [falling, full curve, poor fit]
10 | COc1ccc(Cn2c(N)c(S(=O)(=O)c3cccs3)c3nc4ccccc4nc32)cc1 | 31.6 µM [rising, single point]
11 | CCN1CCN(CCCNC(=O)c2ccc3c(c2)NC(=O)c2ccccc2S3)CC1 | 1 µM [falling, full curve]
12 | COCCN(C(=O)CC(C)(C)C)c1nnc(-c2cccnc2)s1 | 15.8 µM [falling, single point]
13 | N#C/C(=C\c1ccc(Br)cc1)c1nc(-c2cc3cc(Br)ccc3oc2=O)cs1 | 3.98 µM [falling, single point]
14 | COC(=O)c1cc(OC)c(OC)cc1NC(=O)c1c(-c2ccccc2)noc1C | 35.5 µM [falling, single point]
15 | CCc1ccccc1NC(=O)C1CC(c2ccc(F)cc2)=NO1 (stereo unspecified) | 0.01 µM [rising, full curve, poor fit]
16 | CO/N=C/NC(=O)C1=NOC(CNc2ncc(C(F)(F)F)cc2Cl)C1 (stereo unspecified) | 0.0282 µM [falling, full curve, poor fit]
17 | CC1CN(Cc2cc(=O)[nH]c(C(C)C)n2)CC(C)O1 (stereo unspecified) | 1.26 µM [rising, full curve, poor fit]
18 | Cc1cc2sc(C(=O)O)c(C)c2s1 | 31.6 µM [rising, single point]
19 | CCOC(=O)c1ccc(N=c2sc(C(=O)OC)cc(=O)n2C2CC2)cc1 | 0.0501 µM [falling, full curve]
20 | COc1cccc(C2CN(c3ccc(F)cc3F)N=C2c2cccs2)c1OC (stereo unspecified) | 1.26 µM [falling, partial curve]
21 | N#Cc1c(SCC(=O)O)nc(-c2ccccc2)c2c1CCCC2 | 12.6 µM [rising, partial curve, poor fit]
22 | COc1ccc(-c2nc(SCC(=O)NCC3CCCO3)c(-c3ccc(Cl)cc3)[nH]2)cc1 (stereo unspecified) | 0.794 µM [falling, full curve]

Some of these compounds in order of count of non-hydrogen atoms, largest number first.
Row | SMILES | AC50
11 | CCN1CCN(CCCNC(=O)c2ccc3c(c2)NC(=O)c2ccccc2S3)CC1 | 1 µM [falling, full curve]
20 | COc1cccc(C2CN(c3ccc(F)cc3F)N=C2c2cccs2)c1OC (stereo unspecified) | 1.26 µM [falling, partial curve]
12 | COCCN(C(=O)CC(C)(C)C)c1nnc(-c2cccnc2)s1 | 15.8 µM [falling, single point]

Following part

Row | SMILES | AC50
23 | CC(=O)N1CCN(C(=O)Cn2c(=O)oc3ccccc32)CC1 | 0.501 µM [rising, full curve, poor fit]
24 | CCOC(=O)c1ccc2ncc(C(=O)OCC)c(NCCc3ccc(OC)c(OC)c3)c2c1 | 35.5 µM [rising, single point]
25 | Cc1cc(C(=O)OCC(=O)c2ccc(Br)s2)no1 | 12.6 µM [rising, partial curve]
26 | CN(C)c1nc(-c2ccccc2)cc(C(F)(F)F)c1C#N | 0.0316 µM [rising, full curve, poor fit]
27 | COc1ccc(NC(=O)c2ccco2)cc1NC(=O)c1cccs1 | 31.6 µM [rising, single point]
28 | COc1ccc(Cl)cc1NC(=O)CN(c1cccc(C)c1C)S(C)(=O)=O | 35.5 µM [falling, single point]
29 | CC1(C)C(=O)NC2=C1C(=O)C(=O)c1ccccc12 | 15.8 µM [falling, partial curve]
30 | CCOC(=O)c1cc(NC(=O)c2ccc(C)cc2)c(=O)n2c1oc1ccccc12 | 0.141 µM [falling, single point]
31 | CN1CCN(c2cc(=O)n(Cc3ccc(F)cc3)c(=O)[nH]2)CC1 | 0.224 µM [falling, full curve]
32 | CC(=O)C1=C(C)NC(SCC(=O)Nc2nc3ccccc3s2)=C(C#N)C1c1ccc(Cl)cc1 (stereo unspecified) | 4.47 µM [falling, single point]
33 | COc1ccc(CSc2nc(C)cc(=O)[nH]2)cc1 | 5.01 µM [falling, partial curve, poor fit]
34 | Cc1ccccc1-n1nc(C(=O)O)c(C)c(C#N)c1=O | 6.31 µM [falling, single point]
35 | COc1cc(C(=O)NCCN2CCCC2)cc(OC)c1OC | 31.6 µM [falling, single point]
36 | CC(C)(C)C(=O)NC(NC(=S)Nc1sc2c(c1C#N)CCCC2)C(Cl)(Cl)Cl (stereo unspecified) | 10 µM [rising, partial curve]
37 | O=c1cc2c(nn1Cc1cccc(Cl)c1)-c1ccccc1CC2 | 25.1 µM [falling, single point]
38 | COc1ccc(CN2C(=O)[C@@H]3C(c4ccccc4Cl)=NO[C@@H]3C2=O)cc1 | 5.01 µM [rising, single point]
39 | Cc1ccc(S(=O)(=O)N2CCN(C(=O)CN3CCOCC3)C2c2ccccc2)cc1 (stereo unspecified) | 3.16 µM [rising, single point]
40 | N#C/C(=C\c1ccc(O)c(O)c1)C(=O)c1ccc(O)c(O)c1 | 31.6 µM [falling, partial curve, poor fit]
41 | O=c1cc(N2CCc3ccccc3C2)[nH]c(=O)n1Cc1ccc(F)cc1 | 0.316 µM [rising, partial curve]
42 | c1coc(-c2nc3c4c5c(sc4ncn3n2)CCCC5)c1 | 5.01 µM [rising, single point]
43 | CCn1nnnc1SCC(=O)NCc1ccco1 | 0.398 µM [rising, full curve, poor fit]
44 | Cc1nnc(SC(C)C(=O)Nc2ccc(S(=O)(=O)NC3CCCCC3)cc2)s1 (stereo unspecified) | 31.6 µM [falling, single point]

Row | SMILES | AC50
45 | Cc1cccc(C(=O)Nc2cc3c(cc2N2CCOCC2)n(C)c(=O)n3C)c1 | 0.282 µM [falling, partial curve, poor fit]
46 | Cc1ccc(OCCSc2ncnc3sc(C)c(C)c23)cc1C | 5.01 µM [rising, partial curve]
47 | O=C(NCCc1ccccc1)c1c(O)c2cccc3c2n(c1=O)CC3 | 12.6 µM [rising, single point]
48 | Cc1cc(OCC(C)C)ccc1/C(O)=C1/C(=O)C(=O)N(Cc2cccnc2)C1c1ccncc1 (stereo unspecified) | 22.4 µM [rising, partial curve, poor fit]
49 | CCOc1ccc(-c2nnc3sc(COc4ccccc4)nn23)cc1 | 0.0631 µM [falling, full curve, poor fit]
50 | Cc1cc(C)c(NC(=O)NC(=O)c2ccc(F)cc2)c(C)n1 | 0.0501 µM [falling, full curve, poor fit]
51 | COCCN1C(=O)C(=O)/C(=C(/O)c2ccc(S(=O)(=O)N3CCOCC3)cc2)C1c1ccc(C(C)C)cc1 (stereo unspecified) | 31.6 µM [rising, single point]
52 | CCOC(=O)CC(=O)CSc1ncnc2c1oc1ccccc12 | 10 µM [rising, partial curve]
53 | NC(=O)CSc1ncnc2c1oc1ccccc12 | 15.8 µM [rising, single point]
54 | CC(=O)N(CCC(Cc1ccccc1)c1ccc2c(c1)OCO2)Cc1ccccc1F (stereo unspecified) | 1 µM [rising, full curve, poor fit]
55 | C=CCn1c(SCCC#N)nnc1-c1ccncc1 | 25.1 µM [falling, single point]
56 | CCOC(=O)C1=C(C)OC(N)=C(C#N)C1c1cc2cc(C)ccc2nc1N1CCCCC1 (stereo unspecified) | 35.5 µM [rising, single point]
57 | Brc1ccc([C@H]2CN3CCSC3=N2)cc1 | 0.501 µM [rising, full curve, poor fit]
58 | O=C(/C=C/c1ccccc1)NC(=S)NNC(=O)Cc1cccs1 | 3.98 µM [falling, single point]
59 | NC(=O)c1c(NC(=O)C2CCCO2)sc2c1CCC2 (stereo unspecified) | 1.26 µM [falling, partial curve, poor fit]
60 | CCC(C(=O)NCCN1CCN(C)CC1)n1c(C)c2cnn(-c3ccccc3)c(=O)c2c1C (stereo unspecified) | 20 µM [falling, single point]
61 | COC(=O)c1sccc1NC(=S)N1CCCC(C)C1 (stereo unspecified) | 0.126 µM [falling, full curve, poor fit]
62 | Cc1ccc(-n2c(Cc3cccn3C)nnc2SCC(=O)Nc2cc(C)on2)cc1 | 0.0794 µM [falling, full curve, poor fit]
63 | COc1cccc(/C=N/NC(=O)c2c(-c3ccccc3)noc2C)c1O | 5.01 µM [falling, single point]
64 | O=C(/C=C/c1ccco1)NC(=S)Nc1cc(-c2nc3ccccc3s2)ccc1Cl | 35.5 µM [rising, single point]
65 | C=CCOc1ccccc1CNCc1cccnc1 | 0.02 µM [falling, full curve, poor fit]
66 | O=C1CNC(=O)N1Cc1ccc(Br)cc1 | 5.01 µM [rising, single point]
